# Test results taken from the supplement of paper PMC10032668.
# By UniProt entry, the sequences of proteins in these tests, tags left out.
# DEFA3, P59666, UniProt P59666, whole entry: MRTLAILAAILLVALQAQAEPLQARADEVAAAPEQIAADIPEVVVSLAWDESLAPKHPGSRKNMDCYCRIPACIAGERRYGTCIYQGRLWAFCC
# GPN1, Q9HCN4, UniProt Q9HCN4, whole entry: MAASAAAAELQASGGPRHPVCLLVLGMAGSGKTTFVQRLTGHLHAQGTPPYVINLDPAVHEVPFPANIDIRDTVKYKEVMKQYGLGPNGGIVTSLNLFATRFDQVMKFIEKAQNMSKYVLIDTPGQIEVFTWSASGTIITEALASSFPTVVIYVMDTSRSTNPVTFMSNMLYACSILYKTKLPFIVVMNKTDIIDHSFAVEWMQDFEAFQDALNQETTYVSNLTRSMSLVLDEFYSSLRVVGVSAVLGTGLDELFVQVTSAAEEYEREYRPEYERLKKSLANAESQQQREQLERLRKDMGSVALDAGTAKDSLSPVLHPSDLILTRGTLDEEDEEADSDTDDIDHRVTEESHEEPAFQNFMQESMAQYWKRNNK
# MYH9, P35579, UniProt P35579, whole entry: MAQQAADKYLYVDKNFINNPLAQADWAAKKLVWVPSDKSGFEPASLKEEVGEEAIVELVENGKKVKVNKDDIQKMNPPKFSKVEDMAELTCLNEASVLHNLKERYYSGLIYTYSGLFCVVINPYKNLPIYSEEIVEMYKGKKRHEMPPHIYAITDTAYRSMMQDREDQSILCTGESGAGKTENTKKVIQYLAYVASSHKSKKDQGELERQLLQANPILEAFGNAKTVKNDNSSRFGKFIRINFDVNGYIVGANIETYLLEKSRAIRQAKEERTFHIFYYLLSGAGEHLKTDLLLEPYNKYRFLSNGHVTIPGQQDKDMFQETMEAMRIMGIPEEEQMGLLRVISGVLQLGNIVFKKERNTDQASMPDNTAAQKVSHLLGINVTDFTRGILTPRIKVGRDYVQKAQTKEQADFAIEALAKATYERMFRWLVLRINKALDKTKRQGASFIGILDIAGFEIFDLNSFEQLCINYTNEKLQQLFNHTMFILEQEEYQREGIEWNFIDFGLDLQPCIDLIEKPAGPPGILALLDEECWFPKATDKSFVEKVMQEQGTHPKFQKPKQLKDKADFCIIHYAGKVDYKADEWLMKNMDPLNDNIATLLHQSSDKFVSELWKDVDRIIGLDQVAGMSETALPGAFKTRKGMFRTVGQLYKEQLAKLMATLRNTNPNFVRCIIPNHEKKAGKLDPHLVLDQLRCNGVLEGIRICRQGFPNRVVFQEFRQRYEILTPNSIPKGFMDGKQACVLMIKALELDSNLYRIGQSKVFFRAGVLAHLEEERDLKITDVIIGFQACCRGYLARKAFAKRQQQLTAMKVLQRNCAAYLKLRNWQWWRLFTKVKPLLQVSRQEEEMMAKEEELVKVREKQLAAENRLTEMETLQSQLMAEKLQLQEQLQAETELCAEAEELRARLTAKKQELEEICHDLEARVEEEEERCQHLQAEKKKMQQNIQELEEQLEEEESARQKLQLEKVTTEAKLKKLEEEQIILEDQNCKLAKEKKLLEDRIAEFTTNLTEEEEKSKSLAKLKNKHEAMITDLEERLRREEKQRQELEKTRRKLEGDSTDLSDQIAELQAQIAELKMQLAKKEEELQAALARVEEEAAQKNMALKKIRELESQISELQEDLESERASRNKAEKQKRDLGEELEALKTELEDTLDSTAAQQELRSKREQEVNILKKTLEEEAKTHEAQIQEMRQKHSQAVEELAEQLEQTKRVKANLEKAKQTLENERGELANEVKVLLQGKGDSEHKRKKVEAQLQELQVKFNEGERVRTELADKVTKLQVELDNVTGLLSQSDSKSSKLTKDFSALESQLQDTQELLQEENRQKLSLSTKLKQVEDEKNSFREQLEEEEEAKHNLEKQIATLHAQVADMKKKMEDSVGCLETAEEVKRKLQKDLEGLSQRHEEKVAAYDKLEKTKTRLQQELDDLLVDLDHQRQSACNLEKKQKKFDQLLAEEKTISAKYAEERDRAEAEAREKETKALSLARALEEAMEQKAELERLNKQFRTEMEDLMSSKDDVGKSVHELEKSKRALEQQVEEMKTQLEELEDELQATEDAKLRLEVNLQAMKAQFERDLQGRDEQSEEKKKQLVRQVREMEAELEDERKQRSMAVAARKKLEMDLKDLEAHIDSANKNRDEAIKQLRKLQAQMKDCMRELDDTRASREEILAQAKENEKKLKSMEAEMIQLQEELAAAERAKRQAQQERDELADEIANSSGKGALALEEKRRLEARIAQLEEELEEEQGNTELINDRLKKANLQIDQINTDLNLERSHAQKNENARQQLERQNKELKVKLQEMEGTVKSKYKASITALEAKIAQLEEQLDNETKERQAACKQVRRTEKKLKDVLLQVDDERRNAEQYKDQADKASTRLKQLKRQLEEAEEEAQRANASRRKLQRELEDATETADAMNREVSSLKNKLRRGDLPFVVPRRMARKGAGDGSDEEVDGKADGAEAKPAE
# RBBP7, Q16576, UniProt Q16576, whole entry: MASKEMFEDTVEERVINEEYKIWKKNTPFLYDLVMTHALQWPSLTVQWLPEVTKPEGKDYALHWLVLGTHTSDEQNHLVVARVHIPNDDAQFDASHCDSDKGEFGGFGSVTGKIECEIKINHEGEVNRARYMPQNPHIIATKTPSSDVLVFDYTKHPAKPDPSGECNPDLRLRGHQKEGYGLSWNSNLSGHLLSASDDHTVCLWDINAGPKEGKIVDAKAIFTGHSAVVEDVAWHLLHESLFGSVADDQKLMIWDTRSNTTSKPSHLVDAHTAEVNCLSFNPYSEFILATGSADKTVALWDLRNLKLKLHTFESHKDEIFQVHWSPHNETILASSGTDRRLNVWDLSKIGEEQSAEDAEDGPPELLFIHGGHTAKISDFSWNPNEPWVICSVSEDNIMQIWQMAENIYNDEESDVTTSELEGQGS
# TAF8, Q7Z7C8, UniProt Q7Z7C8, whole entry: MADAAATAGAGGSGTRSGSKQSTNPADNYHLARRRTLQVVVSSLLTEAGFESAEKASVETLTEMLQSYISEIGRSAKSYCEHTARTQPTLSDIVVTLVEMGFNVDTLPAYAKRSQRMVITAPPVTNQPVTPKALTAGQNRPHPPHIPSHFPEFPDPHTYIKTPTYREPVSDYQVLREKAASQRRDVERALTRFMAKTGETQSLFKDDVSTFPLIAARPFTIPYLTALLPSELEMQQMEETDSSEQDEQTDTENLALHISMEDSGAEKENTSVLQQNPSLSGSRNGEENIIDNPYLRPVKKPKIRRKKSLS
# CKS2, P33552, UniProt P33552, whole entry: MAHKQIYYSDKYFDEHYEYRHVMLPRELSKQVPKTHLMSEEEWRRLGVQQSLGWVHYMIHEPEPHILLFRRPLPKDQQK
# EIF1, P41567, UniProt P41567, whole entry: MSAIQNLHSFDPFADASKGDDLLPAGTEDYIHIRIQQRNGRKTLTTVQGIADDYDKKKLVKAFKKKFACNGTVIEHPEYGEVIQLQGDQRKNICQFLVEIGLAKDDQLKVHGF
# SP1, P08047, UniProt P08047, whole entry: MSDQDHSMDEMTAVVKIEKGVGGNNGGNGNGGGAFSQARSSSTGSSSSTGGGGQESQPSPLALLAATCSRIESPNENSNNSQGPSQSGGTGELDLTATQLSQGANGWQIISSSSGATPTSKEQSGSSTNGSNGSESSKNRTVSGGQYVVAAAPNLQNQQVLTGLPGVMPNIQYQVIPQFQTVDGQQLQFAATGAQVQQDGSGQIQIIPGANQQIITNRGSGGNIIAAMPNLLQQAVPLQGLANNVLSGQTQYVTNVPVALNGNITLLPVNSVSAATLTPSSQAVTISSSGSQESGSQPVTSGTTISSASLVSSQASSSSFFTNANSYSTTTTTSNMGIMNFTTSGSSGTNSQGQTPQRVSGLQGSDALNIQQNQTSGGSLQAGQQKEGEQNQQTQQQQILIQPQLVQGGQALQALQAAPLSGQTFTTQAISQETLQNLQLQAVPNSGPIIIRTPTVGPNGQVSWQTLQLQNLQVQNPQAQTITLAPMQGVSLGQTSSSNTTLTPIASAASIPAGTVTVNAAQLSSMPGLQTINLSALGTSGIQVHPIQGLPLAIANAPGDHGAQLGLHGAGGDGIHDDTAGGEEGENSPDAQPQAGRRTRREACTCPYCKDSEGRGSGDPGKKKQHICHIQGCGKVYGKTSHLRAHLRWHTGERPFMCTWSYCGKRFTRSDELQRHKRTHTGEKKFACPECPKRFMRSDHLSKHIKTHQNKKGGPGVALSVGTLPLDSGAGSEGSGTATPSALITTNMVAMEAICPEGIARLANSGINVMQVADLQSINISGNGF
# HSPB1, P04792, UniProt P04792, whole entry: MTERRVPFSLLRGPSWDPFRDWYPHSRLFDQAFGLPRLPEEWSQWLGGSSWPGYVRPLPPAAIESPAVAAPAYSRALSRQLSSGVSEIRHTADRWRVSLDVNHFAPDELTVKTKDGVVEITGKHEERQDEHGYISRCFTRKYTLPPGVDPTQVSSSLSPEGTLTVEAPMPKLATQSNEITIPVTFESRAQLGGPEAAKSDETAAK
# The list shows a part of the results. Only hits are listed; about a third recur on repeated control peptides.
# Experiments:
# Assay in all cases: PRISMA enrichment of interactor (LFQ) in peptide spot vs all other peptide spots (log2 fold change); higher = stronger / more specific binding of the interactor to the peptide
# CDC5L, Q99459 = molecular target: CDC5L, Q99459
# Method: (§1)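 PRISMA: 15-aa overlapping tiles (offset 8 aa) of 60 microproteins, plus SOS1/GLUT1 control peptides, were spot-synthesized on cellulose membranes in triplicate. Membranes were incubated with benzonase-treated HEK293T lysate, and bound proteins were identified by LC-MS/MS with LFQ. Enrichment is the log2 fold change of each protein in one spot versus all other spots. Only interactors passing the significance cutoff are listed.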
# COQ8A, Q8NI60 = molecular target: COQ8A, Q8NI60
# Method: as §1
# CSNK2A1, P68400 = molecular target: CSNK2A1, P68400
# Method: as §1
# DEFA3, P59666 = molecular target: DEFA3, P59666
# Method: as §1
# DNAAF5, Q86Y56 = molecular target: DNAAF5, Q86Y56
# Method: as §1
# EARS2, Q5JPH6 = molecular target: EARS2, Q5JPH6
# Method: as §1
# GATA6, Q92908 = molecular target: GATA6, Q92908
# Method: as §1
# GPN1, Q9HCN4 = molecular target: GPN1, Q9HCN4
# Method: as §1
# HMGA1, P17096 = molecular target: HMGA1, P17096
# Method: as §1
# KHSRP, Q92945 = molecular target: KHSRP, Q92945
# Method: as §1
# MLEC, Q14165 = molecular target: MLEC, Q14165
# Method: as §1
# MRPL39, Q9NYK5 = molecular target: MRPL39, Q9NYK5
# Method: as §1
# MRPS5, P82675 = molecular target: MRPS5, P82675
# Method: as §1
# MYH9, P35579 = molecular target: MYH9, P35579
# Method: as §1
# NUP188, Q5SRE5 = molecular target: NUP188, Q5SRE5
# Method: as §1
# PDF, Q9HBH1 = molecular target: PDF, Q9HBH1
# Method: as §1
# PRPF38B, Q5VTL8 = molecular target: PRPF38B, Q5VTL8
# Method: as §1
# RBBP7, Q16576 = molecular target: RBBP7, Q16576
# Method: as §1
# RRP36, Q96EU6 = molecular target: RRP36, Q96EU6
# Method: as §1
# SLC25A13, Q9UJS0 = molecular target: SLC25A13, Q9UJS0
# Method: as §1
# SRP54, P61011 = molecular target: SRP54, P61011
# Method: as §1
# TAF8, Q7Z7C8 = molecular target: TAF8, Q7Z7C8
# Method: as §1
# TMEM214, Q6NUQ4 = molecular target: TMEM214, Q6NUQ4
# Method: as §1
# TMEM263, Q8WUH6 = molecular target: TMEM263, Q8WUH6
# Method: as §1
# TRMT5, Q32P41 = molecular target: TRMT5, Q32P41
# Method: as §1
# URB1, O60287 = molecular target: URB1, O60287
# Method: as §1
# CDCA5, Q96FF9 = molecular target: CDCA5, Q96FF9
# Method: as §1
# CGN, Q9P2M7 = molecular target: CGN, Q9P2M7
# Method: as §1
# CKS2, P33552 = molecular target: CKS2, P33552
# Method: as §1
# COPB2, P35606 = molecular target: COPB2, P35606
# Method: as §1
# DDX42, Q86XP3 = molecular target: DDX42, Q86XP3
# Method: as §1
# DNAJC8, O75937 = molecular target: DNAJC8, O75937
# Method: as §1
# EIF1, P41567 = molecular target: EIF1, P41567
# Method: as §1
# EIF4H, Q15056 = molecular target: EIF4H, Q15056
# Method: as §1
# FAM98B, Q52LJ0 = molecular target: FAM98B, Q52LJ0
# Method: as §1
# GOT2, P00505 = molecular target: GOT2, P00505
# Method: as §1
# HOXD13, P35453 = molecular target: HOXD13, P35453
# Method: as §1
# MACF1 = molecular target: MACF1
# Method: as §1
# NSFL1C, Q9UNZ2 = molecular target: NSFL1C, Q9UNZ2
# Method: as §1
# PAFAH1B3, Q15102 = molecular target: PAFAH1B3, Q15102
# Method: as §1
# QKI, Q96PU8 = molecular target: QKI, Q96PU8
# Method: as §1
# RAB8A, P61006 = molecular target: RAB8A, P61006
# Method: as §1
# SACS, Q9NZJ4 = molecular target: SACS, Q9NZJ4
# Method: as §1
# SP1, P08047 = molecular target: SP1, P08047
# Method: as §1
# UQCRFS1, P47985 = molecular target: UQCRFS1, P47985
# Method: as §1
# CDCA8, Q53HL2 = molecular target: CDCA8, Q53HL2
# Method: as §1
# CDKN2A = molecular target: CDKN2A
# Method: as §1
# FUBP3, Q96I24 = molecular target: FUBP3, Q96I24
# Method: as §1
# HSPB1, P04792 = molecular target: HSPB1, P04792
# Method: as §1
# LUC7L2, Q9Y383 = molecular target: LUC7L2, Q9Y383
# Method: as §1
# RNF213, Q63HN8 = molecular target: RNF213, Q63HN8
# Method: as §1
# TMEM101, Q96IK0 = molecular target: TMEM101, Q96IK0
# Method: as §1
binder,measurement,setting,value
PLVAGGLSPRGIHHC [JHDM1D-AS1],PRISMA enrichment of interactor (log2),"CDC5L, Q99459",5.74
same,PRISMA enrichment of interactor (log2),"COQ8A, Q8NI60",4.74
same,PRISMA enrichment of interactor (log2),"CSNK2A1, P68400",5.15
same,PRISMA enrichment of interactor (log2),"DEFA3, P59666",5.26
same,PRISMA enrichment of interactor (log2),"DNAAF5, Q86Y56",5.03
same,PRISMA enrichment of interactor (log2),"EARS2, Q5JPH6",11.5
same,PRISMA enrichment of interactor (log2),"GATA6, Q92908",4.34
same,PRISMA enrichment of interactor (log2),"GPN1, Q9HCN4",5.13
same,PRISMA enrichment of interactor (log2),"HMGA1, P17096",6.23
same,PRISMA enrichment of interactor (log2),"KHSRP, Q92945",5.23
same,PRISMA enrichment of interactor (log2),"MLEC, Q14165",4.15
same,PRISMA enrichment of interactor (log2),"MRPL39, Q9NYK5",5.1
same,PRISMA enrichment of interactor (log2),"MRPS5, P82675",9.59
same,PRISMA enrichment of interactor (log2),"MYH9, P35579",4.58
same,PRISMA enrichment of interactor (log2),"NUP188, Q5SRE5",4.28
same,PRISMA enrichment of interactor (log2),"PDF, Q9HBH1",4.91
same,PRISMA enrichment of interactor (log2),"PRPF38B, Q5VTL8",4.31
same,PRISMA enrichment of interactor (log2),"RBBP7, Q16576",5.64
same,PRISMA enrichment of interactor (log2),"RRP36, Q96EU6",4.2
same,PRISMA enrichment of interactor (log2),"SLC25A13, Q9UJS0",5.1
same,PRISMA enrichment of interactor (log2),"SRP54, P61011",4.57
same,PRISMA enrichment of interactor (log2),"TAF8, Q7Z7C8",4.13
same,PRISMA enrichment of interactor (log2),"TMEM214, Q6NUQ4",5.79
same,PRISMA enrichment of interactor (log2),"TMEM263, Q8WUH6",4.9
same,PRISMA enrichment of interactor (log2),"TRMT5, Q32P41",4.53
same,PRISMA enrichment of interactor (log2),"URB1, O60287",5.83
GVFIRFLIVLPLDAR,PRISMA enrichment of interactor (log2),"CDCA5, Q96FF9",4.3
same,PRISMA enrichment of interactor (log2),"CGN, Q9P2M7",5.48
same,PRISMA enrichment of interactor (log2),"CKS2, P33552",4.99
same,PRISMA enrichment of interactor (log2),"COPB2, P35606",5.46
same,PRISMA enrichment of interactor (log2),"DDX42, Q86XP3",5.63
same,PRISMA enrichment of interactor (log2),"DNAJC8, O75937",4.79
same,PRISMA enrichment of interactor (log2),"EIF1, P41567",5.89
same,PRISMA enrichment of interactor (log2),"EIF4H, Q15056",4.72
same,PRISMA enrichment of interactor (log2),"FAM98B, Q52LJ0",6.88
same,PRISMA enrichment of interactor (log2),"GOT2, P00505",12.7
same,PRISMA enrichment of interactor (log2),"HOXD13, P35453",4.06
same,PRISMA enrichment of interactor (log2),MACF1,5.78
same,PRISMA enrichment of interactor (log2),"NSFL1C, Q9UNZ2",6.63
same,PRISMA enrichment of interactor (log2),"PAFAH1B3, Q15102",5.58
same,PRISMA enrichment of interactor (log2),"QKI, Q96PU8",4.46
same,PRISMA enrichment of interactor (log2),"RAB8A, P61006",4.87
same,PRISMA enrichment of interactor (log2),"SACS, Q9NZJ4",4.09
same,PRISMA enrichment of interactor (log2),"SP1, P08047",4.03
same,PRISMA enrichment of interactor (log2),"UQCRFS1, P47985",5.3
AARRGRQRPCPLLAG,PRISMA enrichment of interactor (log2),"CDCA8, Q53HL2",5.85
same,PRISMA enrichment of interactor (log2),CDKN2A,4.37
same,PRISMA enrichment of interactor (log2),"FUBP3, Q96I24",5.18
same,PRISMA enrichment of interactor (log2),"HSPB1, P04792",6.21
same,PRISMA enrichment of interactor (log2),"LUC7L2, Q9Y383",4.66
same,PRISMA enrichment of interactor (log2),"RNF213, Q63HN8",5.76
same,PRISMA enrichment of interactor (log2),"TMEM101, Q96IK0",4.2

# Another view of part of the listing above:
binder	measurement	setting	value
GVFIRFLIVLPLDAR	PRISMA enrichment of interactor (log2)	EIF4H, Q15056	4.72
same	PRISMA enrichment of interactor (log2)	FAM98B, Q52LJ0	6.88
same	PRISMA enrichment of interactor (log2)	GOT2, P00505	12.7
same	PRISMA enrichment of interactor (log2)	HOXD13, P35453	4.06
same	PRISMA enrichment of interactor (log2)	MACF1	5.78
same	PRISMA enrichment of interactor (log2)	NSFL1C, Q9UNZ2	6.63
same	PRISMA enrichment of interactor (log2)	PAFAH1B3, Q15102	5.58
same	PRISMA enrichment of interactor (log2)	QKI, Q96PU8	4.46
same	PRISMA enrichment of interactor (log2)	RAB8A, P61006	4.87
same	PRISMA enrichment of interactor (log2)	SACS, Q9NZJ4	4.09
